Test results as given in PMC9159100 (Chemical Science, 2022).
Strings that start with PEPTIDE1 are HELM notation: dots part the residues, brackets hold end groups and non-standard residues.

Test: general procedure: Fmoc solid-phase peptide synthesis; 2-Chloro-trityl chloride resin; HBTU
Settings: conjugation step

PEPTIDE1{[Thy].[dR].[dR].[Cha].[dR].[Cha].[dR].[Cha].F.F.[NBDen]}$$$$V2.0
conjugation yield: 73%
